Structures can show the parent of a compound that is named as a salt.
Test: Open-label taste assessment (Flavor Profile) for bitterness in healthy human subjects
Type: in vivo
Settings: scale 0-3
[1] = 0.01 mg/5 mL in water, aftertaste t = 1 (minutes)
[2] = 0.01 mg/5 mL in water, aftertaste t = 3 (minutes)
[3] = 0.01 mg/5 mL in water, aftertaste t = 5 (minutes)
[4] = 0.01 mg/5 mL in water, aftertaste t = 10 (minutes)
[5] = 0.01 mg/5 mL in water, aftertaste t = 15 (minutes)
[6] = 0.01 mg/5 mL in water, aftertaste t = 20 (minutes)
[7] = 0.01 mg/5 mL in water, aftertaste t = 25 (minutes)
[8] = 0.01 mg/5 mL in water, aftertaste t = 30 (minutes)
[9] = 0.01 mg/5 mL in water, t = 0 (initial)
[10] = 1.0 mg/5 mL in water, aftertaste t = 1 (minutes)
[11] = 1.0 mg/5 mL in water, aftertaste t = 3 (minutes)
[12] = 1.0 mg/5 mL in water, aftertaste t = 5 (minutes)
[13] = 1.0 mg/5 mL in water, aftertaste t = 10 (minutes)
[14] = 1.0 mg/5 mL in water, aftertaste t = 15 (minutes)
[15] = 1.0 mg/5 mL in water, aftertaste t = 20 (minutes)
[16] = 1.0 mg/5 mL in water, aftertaste t = 25 (minutes)
[17] = 1.0 mg/5 mL in water, aftertaste t = 30 (minutes)
[18] = 1.0 mg/5 mL in water, t = 0 (initial)

SMILES | Human taste bitterness intensity [1] | Human taste bitterness intensity [2] | Human taste bitterness intensity [3] | Human taste bitterness intensity [4] | Human taste bitterness intensity [5] | Human taste bitterness intensity [6] | Human taste bitterness intensity [7] | Human taste bitterness intensity [8] | Human taste bitterness intensity [9] | Human taste bitterness intensity [10] | Human taste bitterness intensity [11] | Human taste bitterness intensity [12] | Human taste bitterness intensity [13] | Human taste bitterness intensity [14] | Human taste bitterness intensity [15] | Human taste bitterness intensity [16] | Human taste bitterness intensity [17] | Human taste bitterness intensity [18]
CN1CCN(C(=O)O[C@H]2c3nccnc3C(=O)N2c2ccc(Cl)cn2)CC1 [Free base, (S)-(6-(5-chloro-2-pyridyl)-5-[(4-methyl-1-piperazinyl)carbonyloxy]-7-oxo-6,7-dihydro-5H-pyrrolo[3,4-b]pyrazine), reference compound] | 1.7 | 1.7 | 1.5 | 1.3 | 1.1 | 0.9 | 0.6 | 0.4 | 1.6 | 2.8 | 2.6 | 2.4 | 2.2 | 2.0 | 1.8 | 1.5 | 1.4 | 2.7
CN1CCN(C(=O)OC2c3nccnc3C(=O)N2c2ccc(Cl)cn2)CC1 (stereo in doubt) [(R)-Mandelate, (S)-Zopiclone (R)-Mandelate] | 2.0 | 1.8 | 1.5 | 1.1 | 0.9 | 0.5 | 0.3 | 0.3 | 1.8 | 2.9 | 2.6 | 2.4 | 2.1 | 1.9 | 1.9 | 1.7 | 1.7 | 2.8
CN1CCN(C(=O)O[C@H]2c3nccnc3C(=O)N2c2ccc(Cl)cn2)CC1 [D-Malate, (S)-Zopiclone D-Malate] | 1.5 | 1.0 | 0.7 | 0.4 | 0.3 | 0.1 | 0 | 0 | 1.1 | 2.9 | 2.8 | 2.6 | 2.3 | 2.1 | 1.9 | 1.8 | 1.6 | 3.0
CN1CCN(C(=O)O[C@H]2c3nccnc3C(=O)N2c2ccc(Cl)cn2)CC1 [Mesylate, (S)-Zopiclone Mesylate] | 1.6 | 1.6 | 1.3 | 0.9 | 0.7 | 0.6 | 0.4 | 0.3 | 1.4 | 2.4 | 2.5 | 2.1 | 1.9 | 1.6 | 1.5 | 1.4 | 1.3 | 2.6
